# Test results published in the supplement of paper PMC10735217.
# Counter-ions that a name gives are not always drawn. Some of the results follow. This data set is noisy: repeats of one test often differ as much as different tests do.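 In a drug-repurposing library screen, luminescence reads luciferase driven by eight TEAD-binding elements, stably integrated into human kidney-derived cells. Compounds scoring over five robust Z scores above the plate mean are called hits.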
# System: HEK293A TEAD-LUC reporter
# Test: TEAD-luciferase reporter activity (YAP activation), robust Z score vs plate; higher = stronger YAP/TEAD activation
# Settings: 24 h
Compound,TEAD-luciferase reporter activity (compound concentration: 200 nM),TEAD-luciferase reporter activity (compound concentration: 2 uM),TEAD-luciferase reporter activity (compound concentration: 10 uM)
C[C@@]12C=Cc3occc3C1CC[C@@]13C[C@@H](CCC12)[C@@](O)(CO)C3 (stereo partly drawn) [Kahweol],inactive: 1.34,inactive: 1.08,inactive: 1.25
CC[N+](C)(C)CCN(C)CC[N+](C)(C)CC,inactive: 0.948,inactive: -0.618,inactive: 3.57
O=c1[nH]c(=O)n([C@H]2CC[C@@H](CO)O2)cc1I,inactive: 1.22,inactive: -2,inactive: 4.13
Cc1ccccc1Oc1cccc2c(=O)cc(N3CCOCC3)[nH]c12,inactive: -2.06,inactive: -0.983,inactive: -1.16
CC(C)C(=O)Nc1ccc([N+](=O)[O-])c(C(F)(F)F)c1,inactive: -0.801,–,inactive: 1.17
CC(C)C(=O)Nc1ccc([N+](=O)[O-])c(C(F)(F)F)c1 [flutamide],–,inactive: 3.59,–
O=C(O)CCNC(=O)c1ccc(N=Nc2ccc(O)c(C(=O)O)c2)cc1,inactive: -2.37,–,inactive: 1.96
O=C(O)CCNC(=O)c1ccc(N=Nc2ccc(O)c(C(=O)O)c2)cc1 [balsalazide disodium],–,inactive: 0.97,–
Nc1nc(OCCc2ccc(Cl)cc2)nc2c1ncn2[C@H]1O[C@@H](CO)C(O)C1O (stereo partly drawn) [sonedenoson],inactive: 2.96,inactive: 1.1,active: 16.6
O=C(O)C(Cc1ccccc1)NCc1ccc(Cl)cc1 (stereo not drawn),inactive: 0.582,inactive: 1.67,inactive: 0.945
C=CC(=O)N[C@@H]1CN(c2nc(Nc3cn(C)nc3OC)c3ncn(C)c3n2)C[C@H]1F,inactive: -0.487,inactive: 0.411,inactive: -1.38
CO[C@@H]1[C@H](O)[C@@H](CO)O[C@H]1n1cnc2c(NC3CCCCC3)ncnc21,inactive: -0.97,inactive: -1.65,inactive: -0.885
CC(C)NCCCC1(C(N)=O)c2ccccc2-c2ccccc21,inactive: -1.23,inactive: 0.196,inactive: 2.26
"CCCCC/C=C\C=C\CCCCCCCCC(=O)O [trans-10,cis-12-Conjugated linoleic acid]",inactive: -1.47,inactive: -1.65,inactive: -0.0212
CC(=O)N1CCC(C(=O)N2CCC(N3Cc4ccccc4C3=O)CC2)CC1,inactive: -0.266,–,inactive: 1.66
CS(=O)(=O)c1ccc([C@@H](O)[C@@H](CO)NC(=O)C(Cl)Cl)cc1 [Thiamphenicol],inactive: -1.61,inactive: 0.0325,active: 5.55
O=C1NC(CCCl)Oc2ccccc21 (stereo not drawn),inactive: 0.911,inactive: -0.913,inactive: 0.813
CN1CCN(C2=Cc3ccccc3/C(=C\C#N)c3ccc(Cl)cc32)CC1,inactive: -0.185,inactive: 2.71,inactive: -0.289
CC(C)CCC[C@@H](C)[C@H]1CC[C@H]2[C@@H]3[C@@H](C)C[C@H]4N(C)C(=O)CC[C@]4(C)[C@H]3CC[C@]12C,inactive: -0.665,inactive: -1.36,inactive: -1.39

Compound,TEAD-luciferase reporter activity (compound concentration: 200 nM),TEAD-luciferase reporter activity (compound concentration: 2 uM),TEAD-luciferase reporter activity (compound concentration: 10 uM)
O=C(C1CC1)N1CCN(c2nc3ncccc3o2)CC1,inactive: -3.37,–,inactive: 4.21
COc1ccc(CC(=O)Nc2cc3c(cc2[N+](=O)[O-])OC(C)(C)[C@H](O)[C@H]3NC2CC2)cc1,inactive: 2.26,inactive: 0.264,inactive: 1.76
COc1ccc(CCN(C)CCCOc2ccc(S(=O)(=O)c3c(C(C)C)cn4ccccc34)cc2)cc1OC,inactive: -0.256,inactive: 0.389,inactive: -1.21
CCN1C(=O)CC2(CCN(C)CC2)C1=O,inactive: -1.17,inactive: -1.35,inactive: 1.69
COc1ccccc1CCC(=O)Oc1cccc2ccccc12,inactive: -1.96,inactive: -0.378,inactive: 3.37
CC(C)(C)[C@H](NC(=O)C(CC1CCCC1)CN(O)C=O)C(=O)N1CCN(Cc2nccs2)CC1 (stereo partly drawn),inactive: -1.37,inactive: 1.05,inactive: -0.806
CN1[C@@H]2CC[C@H]1C[C@@H](OC(c1ccccc1)c1ccccc1)C2 [Benzatropine mesilate],–,inactive: 2.5,–
CN1[C@@H]2CC[C@H]1C[C@@H](OC(c1ccccc1)c1ccccc1)C2,inactive: -0.923,–,inactive: 0.963
N#Cc1ccccc1OCC(O)CNCCNC(=O)Nc1ccccc1 (stereo not drawn),inactive: -2.54,inactive: -1.46,inactive: 0.295
CCCCN1CCCC1CNC(=O)c1cc(S(N)(=O)=O)cc2c1OC(C)C2 (stereo not drawn),inactive: 1.01,inactive: -0.958,inactive: 1.61
O=C(Nc1nn[nH]n1)c1cc(Oc2ccccc2)c2ccccn2c1=O [Quinotolast sodium],inactive: -1.97,inactive: -1.41,inactive: 0.934
c1ccc(COc2ccc(CCNc3ccc4cnn(CCN5CCCC5)c4c3)cc2)cc1,inactive: 2.38,inactive: -0.268,inactive: 1.5
[NH2][Pt]([NH2])([Cl])[Cl],inactive: -0.406,inactive: -0.136,active: 5.23
"Nc1nc(=O)n([C@@H]2CS[C@H](CO)O2)cc1F (racemic) [FTC, racemic]",–,inactive: 0.219,–
CC(C)(C)C(=O)S[C@H]1CO[C@H]2[C@@H]1OC[C@H]2O[N+](=O)[O-],inactive: 1.66,inactive: 0.033,inactive: 0.236
O=C(CCc1ccc(O)cc1)c1c(O)cc(O)cc1OC1O[C@H](CO)[C@@H](O)[C@H](O)[C@H]1O (stereo partly drawn) [Phlorizin],inactive: -1.49,inactive: 0.952,inactive: 2.33
CC(C)(C)N[C@H]1C=CC(c2ccccc2)(c2ccccc2)C1,inactive: 1.79,inactive: 4.53,inactive: 3.2
c1ccc(C2CCc3ccccc3O2)cc1 (stereo not drawn) [2-phenylchromane],inactive: 0.00897,inactive: -1.43,inactive: -0.163
O=C(Nc1cc(C(F)(F)F)cc(C(F)(F)F)c1)c1cc(Cl)ccc1O,inactive: -1.9,inactive: -1.13,inactive: -2.08

# Look-ups from the list.
# Entry for CC(C)CCC[C@@H](C)[C@H]1CC[C@H]2[C@@H]3[C@@H](C)C[C@H]4N(C)C(=O)CC[C@]4(C)[C@H]3CC[C@]12C under TEAD-luciferase reporter activity (compound concentration: 200 nM): inactive: -0.665
# Entry for O=C(C1CC1)N1CCN(c2nc3ncccc3o2)CC1 under TEAD-luciferase reporter activity (compound concentration: 200 nM): inactive: -3.37
# Entry for Nc1nc(=O)n([C@@H]2CS[C@H](CO)O2)cc1F (racemic) [FTC, racemic] under TEAD-luciferase reporter activity (compound concentration: 2 uM): inactive: 0.219
# Entry for CC(C)(C)N[C@H]1C=CC(c2ccccc2)(c2ccccc2)C1 under TEAD-luciferase reporter activity (compound concentration: 10 uM): inactive: 3.2

# More entries:

Compound,TEAD-luciferase reporter activity (compound concentration: 200 nM),TEAD-luciferase reporter activity (compound concentration: 2 uM),TEAD-luciferase reporter activity (compound concentration: 10 uM)
C1CCC(C(CC2CCCCN2)C2CCCCC2)CC1 (stereo not drawn),inactive: 0.096,inactive: -0.956,inactive: -0.0521
CC(=O)NC1C(O)CC(OCC2OC(OC3C(CO)OC(O)C(O)C3O)C(O)C(O)C2O)(C(=O)[O-])OC1[C@H](O)[C@H](O)CO (stereo partly drawn) [6'-Sialyllactose],inactive: -1.05,inactive: 2.21,inactive: -1.01
NCCCC[C@H](NC(=O)[C@@H](Cc1ccccc1)NC(=O)[C@H](Cc1c[nH]c2ccccc12)NC(=O)[C@@H](CCCCN)NC(=O)[C@@H](Cc1c[nH]c2ccccc12)NC(=O)[C@@H](N)Cc1cnc[nH]1)C(N)=O,inactive: 0.815,inactive: -0.503,inactive: -0.717
CC(=O)N(CC(O)CO)c1c(I)c(C(=O)NCCO)c(I)c(C(=O)NCC(O)CO)c1I (stereo not drawn) [Ioxilan],inactive: -0.148,inactive: 0.297,inactive: 0.371
CC1OC(=O)N2c3ccc(O)cc3CCC12 (stereo not drawn),inactive: -1.97,inactive: 0.378,inactive: 1.07
COc1ccc(CS(=O)c2ncccc2C(=O)Nc2cc(C)nc(C)c2)c(OC)c1 (stereo not drawn),inactive: -1.1,inactive: 0.464,inactive: -1
Cc1nn(C2CCCC2)c2nc(-c3ccncc3)[nH]c(=O)c12,inactive: -1.63,inactive: -1.01,inactive: -1.88
CCCCCC(CCCC)OC(=O)C(C[C@H](NC(=O)C(N)CC)C(=O)N[C@@H](CC1C=NC=N1)C(=O)N[C@@H](Cc1ccccc1)C(=O)N[C@H](CCCCN)C(=O)N[C@@H](Cc1ccccc1)C(=O)O)[S+](C)[O-] (stereo partly drawn),inactive: 0.132,inactive: -1.37,inactive: 1.09
CCc1nc(C)ccc1O [Emoxipin hydrochloride],inactive: -0.212,inactive: 1.28,inactive: -0.989
CC[C@H]1OC(=O)[C@H](C)[C@@H](O[C@H]2C[C@@](C)(OC)[C@@H](O)[C@H](C)O2)[C@H](C)[C@@H](O[C@@H]2O[C@H](C)C[C@H](N(C)C)[C@H]2O)[C@](C)(O)C[C@@H](C)/C(=N/OCOCCOC)[C@H](C)[C@@H](O)[C@]1(C)O [roxithromycin],active: 6.14,inactive: 0.195,inactive: 0.115
CC1c2ccccc2CCN1c1ssc(=O)c1Cl (stereo not drawn),inactive: 0.421,inactive: 0.999,active: 6.54
COC(=O)[C@H](Cc1ccc(-n2c(=O)c3cc(N(C)C)ccc3n(C)c2=O)cc1)NC(=O)c1c(Cl)cccc1Cl,inactive: -1.32,–,inactive: -0.379
N#Cc1ccc([C@H]2CCc3cncn32)c(F)c1 [Osilodrostat],inactive: 0.374,inactive: 1.76,inactive: 2.67
CCOC(=O)C1=Cc2cc(Cl)ccc2OC1C(F)(F)F (stereo not drawn),inactive: -0.671,inactive: -1.64,inactive: 1.57
ClC(Cl)Cl,inactive: -0.191,inactive: -1.59,inactive: 4.62
CN(C)C(C)(C)CSc1nc2ccccc2cc1-c1ccccc1,inactive: -1.01,inactive: 0.959,inactive: 4.77
Cc1cc(C)[n+]([N-]C(=O)c2ccc(Cl)c(S(N)(=O)=O)c2)c(C)c1 [Besulpamide],inactive: -1.61,inactive: -0.186,inactive: -1.84
COc1ccc2cc(S(=O)(=O)N[C@H](CC(=O)N[C@H](Cc3ccc(CN4[C@H](C)CCC[C@@H]4C)cc3)C(=O)N(C)C(C)C)c3ccc4c(c3)OCO4)ccc2c1,inactive: 0.209,–,inactive: 1.02
